Source: paper PMC5337893
These are yes or no findings as the source states them, for the method shown. Binding seen in cells or lysates may run through a third protein. Some results given as binding are weak or reduced against the parent protein; the word gives no strength.

Amino acid sequences for entries named in this document (tags omitted).
UniProt Q61037: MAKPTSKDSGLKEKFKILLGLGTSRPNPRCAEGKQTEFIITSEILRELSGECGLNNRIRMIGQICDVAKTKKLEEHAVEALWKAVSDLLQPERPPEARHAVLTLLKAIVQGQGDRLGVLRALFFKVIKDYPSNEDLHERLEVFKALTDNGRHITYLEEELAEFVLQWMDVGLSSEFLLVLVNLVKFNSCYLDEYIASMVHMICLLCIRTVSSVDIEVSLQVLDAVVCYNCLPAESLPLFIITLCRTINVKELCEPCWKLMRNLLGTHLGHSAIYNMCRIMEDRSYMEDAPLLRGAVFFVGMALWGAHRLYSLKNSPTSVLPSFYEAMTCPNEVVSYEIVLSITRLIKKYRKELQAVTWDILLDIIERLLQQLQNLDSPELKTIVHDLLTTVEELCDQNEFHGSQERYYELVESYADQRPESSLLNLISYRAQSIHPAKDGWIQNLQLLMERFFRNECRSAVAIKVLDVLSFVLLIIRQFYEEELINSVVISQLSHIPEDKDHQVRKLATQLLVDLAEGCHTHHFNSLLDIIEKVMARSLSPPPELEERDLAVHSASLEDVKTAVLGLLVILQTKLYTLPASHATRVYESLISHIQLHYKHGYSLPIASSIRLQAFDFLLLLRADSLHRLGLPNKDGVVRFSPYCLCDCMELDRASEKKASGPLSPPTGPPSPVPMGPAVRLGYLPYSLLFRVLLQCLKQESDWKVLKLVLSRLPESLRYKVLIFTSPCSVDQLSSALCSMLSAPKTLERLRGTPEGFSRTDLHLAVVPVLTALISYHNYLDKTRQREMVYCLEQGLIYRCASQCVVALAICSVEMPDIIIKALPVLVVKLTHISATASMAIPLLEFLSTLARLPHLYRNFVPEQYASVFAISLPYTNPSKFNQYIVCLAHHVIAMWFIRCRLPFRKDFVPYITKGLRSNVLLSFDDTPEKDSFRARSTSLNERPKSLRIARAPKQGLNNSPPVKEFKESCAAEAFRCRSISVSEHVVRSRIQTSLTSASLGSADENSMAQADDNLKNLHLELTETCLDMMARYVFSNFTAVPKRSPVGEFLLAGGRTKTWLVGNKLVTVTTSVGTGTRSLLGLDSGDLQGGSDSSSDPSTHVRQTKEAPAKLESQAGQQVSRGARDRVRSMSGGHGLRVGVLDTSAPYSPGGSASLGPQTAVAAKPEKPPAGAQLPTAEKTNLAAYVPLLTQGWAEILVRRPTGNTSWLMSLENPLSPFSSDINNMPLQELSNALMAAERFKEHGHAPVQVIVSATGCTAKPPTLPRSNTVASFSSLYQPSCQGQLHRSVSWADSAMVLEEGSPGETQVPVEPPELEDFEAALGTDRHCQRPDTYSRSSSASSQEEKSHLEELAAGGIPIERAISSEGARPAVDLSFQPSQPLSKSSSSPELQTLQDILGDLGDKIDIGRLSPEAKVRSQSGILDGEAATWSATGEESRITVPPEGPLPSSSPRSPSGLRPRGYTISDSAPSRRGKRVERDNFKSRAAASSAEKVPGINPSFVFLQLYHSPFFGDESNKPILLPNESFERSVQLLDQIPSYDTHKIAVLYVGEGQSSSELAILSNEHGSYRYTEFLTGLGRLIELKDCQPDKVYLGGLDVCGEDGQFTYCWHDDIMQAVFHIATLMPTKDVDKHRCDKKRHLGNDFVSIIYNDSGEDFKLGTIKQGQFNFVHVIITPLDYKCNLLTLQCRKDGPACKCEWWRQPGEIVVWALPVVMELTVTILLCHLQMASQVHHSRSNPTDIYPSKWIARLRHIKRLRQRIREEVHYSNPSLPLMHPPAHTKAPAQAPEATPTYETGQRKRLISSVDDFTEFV

Target: tuberous sclerosis 2 (TSC2) (mouse (endogenous in C2C12)) (UniProt Q61037)
Assay: co-IP; 1 mg total protein of C2C12 lysate in CHAPS-based buffer (0.3% CHAPS, 40 mM HEPES pH 7.5, 120 mM NaCl, 1 mM EDTA), immunoprecipitated with anti-TSC2 antibody and immobilized protein A, blotted for TSC1; cells unstimulated or stimulated with PMA (100 nM, 20 min), with/without U0126 (10 uM) or BIM-I (10 uM)

- binding: binds
B1: tuberous sclerosis 1 (TSC1) (protein, UniProt Q9EP53 1-1161)
chain: MAQLANIGELLSMLDSSTLGVRDDVTAIFKESLNSERGPMLVNTLVDYYLETNSQPVLHILTTLQEPHDKHLLDKINEYVGKAATRLSILSLLGHVVRLQPSWKHKLSQAPLLPSLLKCLKMDTDVVVLTTGVLVLITMLPMIPQSGKQHLLDFFDIFGRLSSWCLKKPGHVTEVYLVHLHASVYALFHRLYGMYPCNFVSFLRSHYSMKENVETFEEVVKPMMEHVRIHPELVTGSKDHELDPRRWKTLETHDVVIECAKISLDPTEASYEDGYSVSHQLSACFPYRSADVTTSPYVDTQNSYGGSTSTPSSSSRLMLFSPPGQLPQSLSSPSTRLLPEPLQASLWSPSAVCGMTTPPTSPGNVPADLSHPYSKAFGTTAGGKGTPSGTPATSPPPAPPCPQDDCVHGSAAQASATAPRKEERADSSRPYLHRQSNDRGLEDPPGSKGSVTLRNLPDFLGDLASEEDSIEKDKEEAAISKELSEITTAEADPVVPRGGFDSPFYRDSLSGSQRKTHSAASGTQGSSVNPEPLHSSLDKHGPDTPKQAFTPIDPPSGSADVSPAGDRDRQTSLETSILTPSPCKIPPQRGVSFGSGQLPPYDHLFEVALPKTACHFVSKKTEELLKKVKGNPEEDCVPSTSPMEVLDRLIEQGAGAHSKELSRLSLPSKSVDWTHFGGSPPSDELRTLRDQLLLLHNQLLYERFKRQQHALRNRRLLRKVIRAAALEEHNAAMKDQLKLQEKDIQMWKVSLQKEQARYSQLQEQRDTMVTQLHSQIRQLQHDREEFYNQSQELQTKLEDCRNMIAELRVELKKANNKVCHTELLLSQVSQKLSNSESVQQQMEFLNRQLLVLGEVNELYLEQLQSKHPDTTKEVEMMKTAYRKELEKNRSHLLQQNQRLDASQRRVLELESLLAKKDHLLLEQKKYLEDVKSQASGQLLAAESRYEAQRKITRVLELEILDLYGRLEKDGRLRKLEEDRAEAAEAAEERLDCCSDGCTDSLVGHNEEASGHNGETRTSRPGGTRASCGGRVTGGSSSSSSELSTPEKPPSQRFSSRWEPALGEPSSSIPTTVGSLPSSKSFLGMKARELFRNKSESQCDEDSVTMSSSSLSETLKTELGKDSGTENKTSLSLDAPHPSSPNSDNVGQLHIMDYNETHPEHS
